Results: PubChem BioAssay AID493014 (National Center for Advancing Translational Sciences (NCATS), 2011)
About 170 (0.05%) of roughly 340,000 compounds were called active. Inconclusive means that the source gave no clear call. Such entries were picked first, then a sample of the others. Calls come from the whole dose curve; as a rule, active = well fitted inhibition curve with a large enough effect in the signal ratio, with a control signal flat (not every such curve was filed as active); inconclusive = small, poorly fitted or top-dose-only effect, or effect the other way, or a change in a side signal; inactive = flat fitted curve, though single readings scatter; the % refers to the signal ratio. A potency beside an inconclusive call is a rough fit, not a confirmed value.

assay: qHTS Assay to Find Inhibitors of Chronic Active B-Cell Receptor Signaling; conditions: ABC-DLBCL IkBa-CBG/CBR reporter, luminescence ratio (green luciferase fused to IkBa over red control in TMD8 lymphoma cells), 4 h; activity change, negative = inhibition: at 46.1 µM (top of the series) unless noted;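 for activity change, negative = inhibition: plate controls were basal doxycycline-induced cells for no effect and cells given 10 µM MG132 for full effect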
Excerpt: NIH Molecular Libraries Probe Production Network [MLPCN] NIH Chemical Genomics Center [NCGC] MLPCN Grant: 1 R03 DA031086-01A1 PI Name: Dr. R. Eric Davis NCGC Assay Overview: Diffuse large B-cell lymphoma (DLBCL) is the most common category of non-Hodgkin lymphoma, with ~20,000 new cases per year in the United States. DLBCL should be regarded as a collection of different neoplasms. Microarray gene expression analysis has defined two principal types of DLBCL, named for their similarity to normal B cell stages or activation states: a germinal center B-cell (GCB) type, and an activated B-cell (ABC) type. In ABC-DLBCL, a constitutive high-level activity of the NF-kappaB family of transcription factors has been observed (1) and NF-kappaB target genes are more highly expressed in ABC primary tumors than in GCB tumors. Functional studies have shown a constitutive high-level activity of the IkappaB (inhibitor of kappa-B) kinase (IKK) complex. […] Further analysis of DLBCL primary tumors for NF-kappaB target gene expression imply that although CARD11 is required for constitutive IKK activity in all ABC-DLBCL lines, mutations in CARD11 may be the root cause of IKK activation only in lines or tumors with such mutations. In other words, CARD11 mutations may explain NF-kappaB activation in only 10% of ABC-DLBCL cases. […] This process has been termed 'chronic active BCR signaling' (CABS). The goal of this screen is to find small-molecule inhibitors of the CABS pathway found in ABC-DLBCL lines using a cell-based assay that measures IkappaBalpa stability, which has already been extensively validated in the OCI-Ly3 line (PubChem AID:445; REF: 4). […] The assay uses green (CBG68) and red (CBR) emitting beetle luciferases [Chroma-GloTM developed by Promega Corp.] where the green luciferase is fused to IkappaBalpha and the red luciferase is present in its native state. Both luciferase genes are stably present in the TMD8 human ABC DLBCL cell line, but their expression is under the control of tetracycline-inducible promoters. Following the addition of doxycycline to induce expression of the luciferases, the green luminescence in control cultures rises only slowly because the CBG fusion partner IkappaBalpha is targeted by IKK activity for rapid degradation. In contrast, green luminescence rises rapidly in the presence of proteasome inhibitors or IKK inhibitors. The rise in red luminescence of CBR is not affected by proteasome or IKK inhibitors, and serves as normalization for cell number and nonspecific effects. Compounds were screened as a concentration-titration series that ranged from 46 uM to 3 nM.
NCGC Assay Protocol Summary: Cells were seeded in 1536-well plates at 5000 cells/4uL in IMDM medium containing 0.5% FBS, w/o phenol red, 1% penicillin/streptomycin. Then, 23 nL of compounds or DMSO were delivered to each well using a pin tool. One uL 20ng/ml doxycycline was then dispensed into white solid 1536-well plates and the plates were incubated at 37C/5% C02 in a cell incubator for 4 hrs. Then 4 uL luminescent substrate mix (in-house prepared: 150 mM Tris-Cl, pH 7.6, 3 mM MgCl2, 1% Triton X-100, 5 mM DTT, 0.2 mM CoA, 0.15 mM ATP, 5 mM D-luciferin, final concentrations) was added to each well. The plate was incubated at r.t. for 10-15 min. The plates were measured on a ViewLux plate reader for green luminescence (540/20 nm filter) and red luminescence (618/8 nm filter). The green and red luminescent signals were corrected for red and green luminescence filter overlap using previously determined filter calibration constants (determined using the procedure outlined in the Promega Technical Manual; REF 4). The %Activity was determined from the ratio of corrected green/red luminescent values. MG132 were used as control. […] Red luminescent %Activity was normalized to the difference between red luminesence in basal cells (0%Activity) and zero luminescence (-100% Activity). […]
Potency is the fitted concentration of half-maximal effect.

SMILES	Potency	activity change, negative = inhibition
CCc1nnc(NC(=O)OCc2ccccc2)s1	inconclusive: 18.4 µM [falling, partial curve]	–
NC(=S)N/N=C/c1ccccc1OC(=O)/C=C/c1ccccc1	inconclusive: 22.4 µM [cytotoxic, partial curve]	–
Cc1ccc(Nc2nc3ccccc3n3cnnc23)cc1C	–	inconclusive: 5.82%
Nn1c(SCC(=O)Nc2ccc(F)cc2)nnc1-c1ccccn1	inconclusive: 10 µM [falling, partial curve, poor fit]	–
O=C(C1CCC(CNS(=O)(=O)c2cccc3nsnc23)CC1)N1CC=C(c2ccccc2)CC1 (configuration not stated)	inconclusive: 2.59 µM [falling, full curve]	–
COc1cc(/C=C/C(=O)OCC(=O)N(C)C2CCS(=O)(=O)C2)ccc1OC(F)F (configuration not stated)	–	inconclusive: -19.2%
CC(C)(NC(=O)N1CCCC1)c1cccc(C(C)(C)NC(=O)N2CCCC2)c1	–	inconclusive: 4.1%
CC1(C)Cc2ccccc2C(=NCCCCCC(=O)O)N1	–	inconclusive: 13.3%
CCCCNC(=O)c1c[nH]c2ccc(S(=O)(=O)N3CCOCC3)cc2c1=O	–	inactive
C#CCOCCOCCOCCNc1nc(N2CCN(C(=O)CCCCCCCCCCNC(=O)[C@H](CCC(=O)O)n3cc(CCCCCN)nn3)CC2)nc(N2CCN(C(=O)CCCCCCCCCCNC(=O)[C@@H]([C@H](C)O)n3cc(C)nn3)CC2)n1	–	inactive
COc1ccc(Oc2nc3ccccc3n3cccc23)cc1	–	inconclusive: 1.65%
CC(C)(C)C1CCc2c(C(=O)NNC(=O)/C=C/C(=O)O)csc2C1 (configuration not stated)	–	inactive
COc1ccc(Nc2nc(-c3c[nH]c4ccccc34)cs2)cc1	–	inconclusive: -10.9%
Cc1ccc([N+](=O)[O-])cc1NC(=O)CN(C(=O)c1ccccc1Cl)C1CCCCC1	–	inconclusive: 24.1%
O=C(OCCCOC(=O)c1ccc(O)cc1)c1ccc(O)cc1	inconclusive: 35.5 µM [falling, single point]	–
O=Cc1cn(CCOc2ccccc2)c2ccccc12	–	inconclusive: 2.13%
CCn1c(O)c(C=Nc2ccccc2)sc1=S	inconclusive: 35.5 µM [falling, single point]	–
CCOc1ncccc1C(=O)OCc1ccc(C(=O)OC)o1	–	inconclusive: -0.303%
O=C(Nc1ccc2ccccc2c1)c1ccc(Br)o1	inconclusive: 12.6 µM [falling, single point]	–
COc1ccc(CN2CC(C(=O)NCc3ccccn3)CC2=O)cc1 (configuration not stated)	–	inconclusive: -1.18%
Fc1ccccc1NC(=S)NCCc1ccccc1	–	inactive
Oc1cccc(Nc2nc(N3CCOCC3)nc(N3CCOCC3)n2)c1	inconclusive: 15.8 µM [cytotoxic, partial curve]	–
Cc1cc(C)c2sc(NC(=O)c3ccc([N+](=O)[O-])o3)nc2c1	–	inconclusive: -5.26%
COc1ccccc1CNC(=O)C(=O)NCC1OCCN1S(=O)(=O)c1cccs1 (configuration not stated)	inconclusive: 15.8 µM [falling, partial curve]	–
CC1CC(C)CN(CCCNC(=O)c2cc3c(s2)-c2ccccc2OC3)C1 (configuration not stated)	–	inconclusive: -16.5%
Fc1ccc(NC(=S)NC23CN4CN(CN(C4)C2)C3)cc1	–	inconclusive: 6.9%

Compounds shown so far that contain a furan ring, fused or not:
SMILES	Potency	activity change, negative = inhibition
CCOc1ncccc1C(=O)OCc1ccc(C(=O)OC)o1	–	inconclusive: -0.303%
O=C(Nc1ccc2ccccc2c1)c1ccc(Br)o1	inconclusive: 12.6 µM [falling, single point]	–
Cc1cc(C)c2sc(NC(=O)c3ccc([N+](=O)[O-])o3)nc2c1	–	inconclusive: -5.26%

(further entries)

SMILES	Potency	activity change, negative = inhibition
O=C(O)c1cccc(NC(=O)c2cccc(S(=O)(=O)N3CCc4ccccc43)c2)c1	–	inconclusive: -1.11%
O=C(Nc1ccc(F)cc1)N1CCN(C/C=C/c2ccccc2)CC1	–	inconclusive: 1.35%
COc1cc(C(=O)O/N=C(\N)c2ccccn2)cc(OC)c1OC	inconclusive: 22.4 µM [falling, single point]	–
CCOC(=O)c1cn2nc(Oc3cccc(F)c3)ccc2n1	–	inconclusive: 0.578%
CCOC(=O)COc1c(C(=O)OC)sc2ncccc12	–	inactive
CCOc1ccc(C2C=C(c3ccc(C)cc3)Nc3nnnn32)cc1 (configuration not stated)	–	inconclusive: -9.18%
O=C(CC(=O)Nc1ccccc1[N+](=O)[O-])Nc1ccccc1[N+](=O)[O-]	–	inactive
COc1ccc(C(=O)Nc2ccccc2N2CCN(C(=O)c3ccccc3)CC2)cc1Br	–	inactive
CCOc1ccccc1C(=O)N1c2ccccc2Sc2ccccc21	–	inconclusive: -9.1%
COc1ccc(O)c(C(=O)c2cnn(C(=O)c3cccc(S(=O)(=O)N4CCOCC4)c3)c2)c1	–	inconclusive: -4.23%
Cn1c2cc(B(O)O)sc2c2cnn(Cc3c(F)cccc3F)c(=O)c21	–	inactive
COC(=O)COc1cccc(NC(=O)c2cc(OC)cc(OC)c2)c1	inconclusive: 10 µM [falling, partial curve]	–
COc1ccc(C)cc1NC(=O)CO/N=C(\N)CC(=O)NC1CCCCC1	–	inactive
CCc1c(C)nc(SCCOc2ccc(OC(C)C)cc2)[nH]c1=O	–	inconclusive: 9.26%
COc1ccc(-c2n[nH]c(C)c2-c2ccc(Cl)cc2)c(O)c1	–	inconclusive: 15%
O=C(O)CCc1ccc(S(=O)(=O)Nc2ccccc2C(=O)NCCc2ccccc2)cc1	–	inconclusive: -11%
Clc1ccc(-c2csc(N/N=C\c3cccnc3)n2)cc1	–	inactive
O=C(c1c[nH]c2ccccc12)C(O)C(c1ccccc1)N1CCOCC1 (configuration not stated)	–	inactive
CC(=O)Nc1ccc(S(=O)(=O)Nc2cc(S(=O)(=O)N3CCCCC3)ccc2O)cc1	–	inactive
O=C(Cn1cc2c(n1)CCCC2)NC1CCCCCC1	–	inconclusive: 10.2%
C=CCSc1nnc(NC(=O)CSc2nnc(C)s2)s1	–	inconclusive: -4.47%
COc1ccc(/C=C(/C(=O)N2CCCCC2C(=O)O)c2ccc(OC)c(OC)c2)cc1 (configuration not stated)	–	inconclusive: 0.251%
COc1cc2c(cc1OC)-c1cc(Nc3ccccc3Br)nc(=O)n1CC2	inconclusive: 8.91 µM [falling, partial curve, poor fit]	–
COc1ccc(CCNC(=O)CNC(=O)Cn2cnc3sc(C)c(C)c3c2=O)cc1OC	–	inconclusive: 0.257%
COC(=O)c1ccc(CSc2ccc3nnc(-c4ccccn4)n3n2)o1	inconclusive: 20.6 µM [falling, partial curve]	–
CN1CCN(c2ccc(S(=O)(=O)N3CCCCC3)cc2NC(=O)CSCc2ccccc2)CC1	–	inactive
